Source: patent publication US20250136563A1, “THIADIAZOLONE DERIVATIVES USEFUL AS AMPK ACTIVATOR” (Betagenon AB, priority 2021, published 2025)
Structures can show the parent of a compound that is named as a salt. For at least one compound, name, drawing or mass did not settle the structure.

Assay: Stability in buffers pH 1.20, 7.40 and 9.20 (Examples 26 and 27)

NC(CC(=O)O)C(=O)OCn1c(=O)n(Cc2ccc(Cl)cc2)s/c1=N/C(=O)c1ccc(Cl)cc1 (stereo not drawn) [Compound 17, Trifluoroacetate]
Percentage of Compound 1 formation compared to standard (pH 1.20, 0.0 min, standard = full conversion of Compound 17 to Compound 1): 4.54
Percentage of Compound 1 formation compared to standard (pH 1.20, 15.0 min): 3.03
Percentage of Compound 1 formation compared to standard (pH 1.20, 30.0 min): 3.42
Percentage of Compound 1 formation compared to standard (pH 1.20, 60.0 min): 3.17
Percentage of Compound 1 formation compared to standard (pH 1.20, 120.0 min): 4.40
Percentage of Compound 1 formation compared to standard (pH 7.40, 0.0 min): 87.80
Percentage of Compound 1 formation compared to standard (pH 7.40, 15.0 min): 69.71
Percentage of Compound 1 formation compared to standard (pH 7.40, 30.0 min): 74.14
Percentage of Compound 1 formation compared to standard (pH 7.40, 60.0 min): 64.06
Percentage of Compound 1 formation compared to standard (pH 7.40, 120.0 min): 68.90
Percentage of Compound 1 formation compared to standard (pH 9.20, 0.0 min): 85.62
Percentage of Compound 1 formation compared to standard (pH 9.20, 15.0 min): 92.53
Percentage of Compound 1 formation compared to standard (pH 9.20, 30.0 min): 88.95
Percentage of Compound 1 formation compared to standard (pH 9.20, 60.0 min): 90.12
Percentage of Compound 1 formation compared to standard (pH 9.20, 120.0 min): 103.36
